# Experimental data taken from PMC4653696.
# Numbering of substitutions follows the chain as printed. Names and notes keep the numbering of the source. No constants are given. Whether binding was seen depends on the method and setting. Some results given as binding are weak or reduced against the parent protein; the word gives no strength. Sequences can lack the tags named with a protein.
# T1: (His)6-Cdc12(L310C), otherwise Cys-less (S. cerevisiae) (UniProt P32468)
# T1 sequence: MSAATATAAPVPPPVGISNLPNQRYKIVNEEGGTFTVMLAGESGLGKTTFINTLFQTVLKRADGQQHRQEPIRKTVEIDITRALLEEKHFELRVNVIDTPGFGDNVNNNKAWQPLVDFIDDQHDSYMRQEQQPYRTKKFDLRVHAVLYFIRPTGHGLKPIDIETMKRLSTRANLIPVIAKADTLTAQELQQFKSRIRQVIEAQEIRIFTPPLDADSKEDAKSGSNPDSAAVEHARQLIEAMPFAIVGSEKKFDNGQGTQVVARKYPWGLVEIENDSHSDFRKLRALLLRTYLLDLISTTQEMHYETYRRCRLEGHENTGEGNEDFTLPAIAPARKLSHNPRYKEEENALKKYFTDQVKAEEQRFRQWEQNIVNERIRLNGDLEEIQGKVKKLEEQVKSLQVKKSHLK
# T2: (His)6-Cdc12(C40A,C278S) (S. cerevisiae) (UniProt P32468)
# T2 sequence: T1 sequence with C310L
# B1: Cdc3(C124V,C253V,C279V) (protein, UniProt P32457 1-520)
# chain: MSLKEEQVSIKQDPEQEERQHDQFNDVQIKQESQDHDGVDSQYTNGTQNDDSERFEAAESDVKVEPGLGMGITSSQSEKGQVLPDQPEIKFIRRQINGYVGFANLPKQWHRRSIKNGFSFNLLVVGPDGIGKTTLMKTLFNNDDIEANLVKDYEEELANDQEEEEGQGEGHENQSQEQRHKVKIKSYESVIEENGVKLNLNVIDTEGFGDFLNNDQKSWDPIIKEIDSRFDQYLDAENKINRHSINDKRIHAVLYFIEPTGHYLKPLDLKFMQSVYEKVNLIPVIAKSDILTDEEILSFKKTIMNQLIQSNIELFKPPIYSNDDAENSHLSERLFSSLPYAVIGSNDIVENYSGNQVRGRSYPWGVIEVDNDNHSDFNLLKNLLIKQFMEELKERTSKILYENYRSSKLAKLGIKQDNSVFKEFDPISKQQEEKTLHEAKLAKLEIEMKTVFQQKVSEKEKKLQKSETELFARHKEMKEKLTKQLKALEDKKKQLELSINSASPNVNHSPVPTKKKGFLR
# B2: Cdc10(C266S) (protein, UniProt P25342 1-322)
# chain: MDPLSSVQPASYVGFDTITNQIEHRLLKKGFQFNIMVVGQSGLGKSTLINTLFASHLIDSATGDDISALPVTKTTEMKISTHTLVEDRVRLNINVIDTPGFGDFIDNSKAWEPIVKYIKEQHSQYLRKELTAQRERFITDTRVHAILYFLQPNGKELSRLDVEALKRLTEIANVIPVIGKSDTLTLDERTEFRELIQNEFEKYNFKIYPYDSEELTDEELELNRSVRSIIPFAVVGSENEIEINGETFRGRKTRWSAINVEDINQSDFVYLREFLIRTHLQDLIETTSYIHYEGFRARQLIALKENANSRSSAHMSSNAIQR
# B3: Cdc3(S407C), otherwise Cys-less (protein, UniProt P32457 1-520)
# chain: B1 chain with S407C
# B4: Shs1(Δ2–18/Δα0 E344C), otherwise Cys-less (protein, UniProt Q07657)
# chain: MKRGITYTMLLVGPAGTGKTAFANNLLETKIFPHKYQYGKSNASISSNPEVKVIAPTKVVSFNSKNGIPSYVSEFDPMRANLEPGITITSTSLELGGNKDQGKPEMNEDDTVFFNLIMTHGIGENLDDSLSSEEVMSYLEQQFDIVLAEETRIKRNPRFEDTRVHVALYFIEPTGHGLREVDVELMKSISKYTNVLPIITRADSFTKEELTQFRKNIMFDVERYNVPIYKFEVDPEDDDLESMEENQALASLQPFAIITSDTRDSEGRYVREYPWGIISIDDDKISDLKVLKNVLFGSHLQEFKDTTQNLLYENYRSEKLSSVANACEIGPNSTKRQSNAPSLSNFASLISTGQFNSSQTLANNLRADTPRNQVSGNFKENEYEDNGEHDSAENEQEMSPVRQLGREIKQENENLIRSIKTESSPKFLNSPDLPERTKLRNISETVPYVLRHERILARQQKLEELEAQSAKELQKRIQELERKAHELKLREKLINQNKLNGSSSSINSLQQSTRSQIKKNDTYTDLASIASGRD
# B5: Shs1(C29V,C148S,E344C) (protein, UniProt Q07657 1-551)
# chain: MSTASTPPINLFRRKKEHKRGITYTMLLVGPAGTGKTAFANNLLETKIFPHKYQYGKSNASISSNPEVKVIAPTKVVSFNSKNGIPSYVSEFDPMRANLEPGITITSTSLELGGNKDQGKPEMNEDDTVFFNLIMTHGIGENLDDSLSSEEVMSYLEQQFDIVLAEETRIKRNPRFEDTRVHVALYFIEPTGHGLREVDVELMKSISKYTNVLPIITRADSFTKEELTQFRKNIMFDVERYNVPIYKFEVDPEDDDLESMEENQALASLQPFAIITSDTRDSEGRYVREYPWGIISIDDDKISDLKVLKNVLFGSHLQEFKDTTQNLLYENYRSEKLSSVANACEIGPNSTKRQSNAPSLSNFASLISTGQFNSSQTLANNLRADTPRNQVSGNFKENEYEDNGEHDSAENEQEMSPVRQLGREIKQENENLIRSIKTESSPKFLNSPDLPERTKLRNISETVPYVLRHERILARQQKLEELEAQSAKELQKRIQELERKAHELKLREKLINQNKLNGSSSSINSLQQSTRSQIKKNDTYTDLASIASGRD
# B6: Cdc10(R298C), otherwise Cys-less (protein, UniProt P25342 1-322)
# chain: B2 chain with R298C
# B7: Shs1(E344C ΔCTE), otherwise Cys-less (domain or fragment, UniProt Q07657 1-348)
# chain: MSTASTPPINLFRRKKEHKRGITYTMLLVGPAGTGKTAFANNLLETKIFPHKYQYGKSNASISSNPEVKVIAPTKVVSFNSKNGIPSYVSEFDPMRANLEPGITITSTSLELGGNKDQGKPEMNEDDTVFFNLIMTHGIGENLDDSLSSEEVMSYLEQQFDIVLAEETRIKRNPRFEDTRVHVALYFIEPTGHGLREVDVELMKSISKYTNVLPIITRADSFTKEELTQFRKNIMFDVERYNVPIYKFEVDPEDDDLESMEENQALASLQPFAIITSDTRDSEGRYVREYPWGIISIDDDKISDLKVLKNVLFGSHLQEFKDTTQNLLYENYRSEKLSSVANACEIGP
# Target: T1, (His)6-Cdc12(L310C), otherwise Cys-less (S. cerevisiae)
# Test: co-purification (IMAC on His6-Cdc12, then SEC); septin subunits co-expressed in E. coli from two DUET vectors; Ni-NTA in 300 mM KCl, chitin-agarose flow-through, Superdex 200 in 300 mM KCl, 50 mM Tris-HCl pH 8.0; fractions by SDS-PAGE and Coomassie; complex recaptured by IMAC after labelling
row,binding,Binder
1,binds,B1
2,binds,B2

# Target: T2, (His)6-Cdc12(C40A,C278S) (S. cerevisiae)
# Test: as above
row,binding,Binder
1,binds,B1
2,binds,B3
3,binds,B4
4,binds,B5
5,binds,B2
6,binds,B6
7,binds,B7
